# Results are given in words; binding and its absence hold for the method and conditions named. Binding seen in cells or lysates may run through a third protein. These calls come from enrichment with a bait or labelling near it, and not all partners need be listed.
# Protein sequences, listed by entry. Tags and fused reporters are not part of them.
# UniProt Q8N9U0: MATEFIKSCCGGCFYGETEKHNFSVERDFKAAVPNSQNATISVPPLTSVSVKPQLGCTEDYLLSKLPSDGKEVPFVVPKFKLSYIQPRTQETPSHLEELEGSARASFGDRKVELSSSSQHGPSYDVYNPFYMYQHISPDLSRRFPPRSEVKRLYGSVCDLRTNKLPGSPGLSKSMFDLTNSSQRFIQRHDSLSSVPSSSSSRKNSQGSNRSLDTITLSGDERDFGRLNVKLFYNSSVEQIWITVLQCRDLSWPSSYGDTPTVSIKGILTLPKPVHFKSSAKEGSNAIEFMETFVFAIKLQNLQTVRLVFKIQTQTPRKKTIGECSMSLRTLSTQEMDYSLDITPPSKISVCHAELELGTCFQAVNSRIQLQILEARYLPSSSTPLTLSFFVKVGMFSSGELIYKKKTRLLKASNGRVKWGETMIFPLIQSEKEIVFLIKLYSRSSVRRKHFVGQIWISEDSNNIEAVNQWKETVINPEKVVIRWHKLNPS
# Molecular target: TC2N (human) (UniProt Q8N9U0)
# Assay: affinity purification with mass spectrometry; lysates of TC2N-overexpressing MCF7 and MDA-MB-231 cells immunoprecipitated with Flag antibody, proteomic analysis (iTRAQ, NanoLC)
binder,measurement,value
"EBP1 (protein, UniProt Q9UQ80 1-394) MSGEDEQQEQTIAEDLVVTKYKMGGDIANRVLRSLVEASSSGVSVLSLCEKGDAMIMEETGKIFKKEKEMKKGIAFPTSISVNNCVCHFSPLKSDQDYILKEGDLVKIDLGVHVDGFIANVAHTFVVDVAQGTQVTGRKADVIKAAHLCAEAALRLVKPGNQNTQVTEAWNKVAHSFNCTPIEGMLSHQLKQHVIDGEKTIIQNPTDQQKKDHEKAEFEVHEVYAVDVLVSSGEGKAKDAGQRTTIYKRDPSKQYGLKMKTSRAFFSEVERRFDAMPFTLRAFEDEKKARMGVVECAKHELLQPFNVLYEKEGEFVAQFKFTVLLMPNGPMRITSGPFEPDLYKSEMEVQDAELKALLQSSASRKTQKKKKKKASKTAENATSGETLEENEAGD",binding,binds

# Source: PMC6541591
